According to paper PMC9682256:
No constants are given. Whether binding was seen depends on the method and setting. Binding seen in cells or lysates may run through a third protein. Binding can be weak; no strength is given.

Molecular target: T1, murine PiC2 (SLC25A3), mitochondrial phosphate carrier / Cu+ transporter (mouse (endogenous in primary myoblasts)) (UniProt Q8VEM8)
T1 sequence: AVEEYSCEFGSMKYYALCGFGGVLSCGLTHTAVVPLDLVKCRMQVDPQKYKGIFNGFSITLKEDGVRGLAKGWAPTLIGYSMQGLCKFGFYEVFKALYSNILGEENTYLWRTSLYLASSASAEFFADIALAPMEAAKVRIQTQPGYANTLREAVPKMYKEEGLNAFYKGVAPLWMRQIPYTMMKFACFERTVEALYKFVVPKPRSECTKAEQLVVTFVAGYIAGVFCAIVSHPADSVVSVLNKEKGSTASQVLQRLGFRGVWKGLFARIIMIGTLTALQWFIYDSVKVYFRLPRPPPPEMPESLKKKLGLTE
Experiment: co-IP; extracts of proliferating and differentiating primary myoblasts grown with or without CuSO4; IP lysis buffer (50 mM Tris-HCl pH 7.5, 150 mM NaCl, 1% Nonidet P-40, 0.5% sodium deoxycholate); anti-PiC2 or anti-COX1 antibody, 4°C 2 h, protein A/G magnetic beads overnight; western blot

binding: binds
Substance: Sco1 (mouse (endogenous in primary myoblasts))
